These results are taken from the supplement of paper PMC6411743.

Protein sequences, listed by entry. Tags and fused reporters are not part of them. Lines headed by an entry give the natural chain unless they say otherwise; changes in a name come on top.
UniProt Q9BWG4: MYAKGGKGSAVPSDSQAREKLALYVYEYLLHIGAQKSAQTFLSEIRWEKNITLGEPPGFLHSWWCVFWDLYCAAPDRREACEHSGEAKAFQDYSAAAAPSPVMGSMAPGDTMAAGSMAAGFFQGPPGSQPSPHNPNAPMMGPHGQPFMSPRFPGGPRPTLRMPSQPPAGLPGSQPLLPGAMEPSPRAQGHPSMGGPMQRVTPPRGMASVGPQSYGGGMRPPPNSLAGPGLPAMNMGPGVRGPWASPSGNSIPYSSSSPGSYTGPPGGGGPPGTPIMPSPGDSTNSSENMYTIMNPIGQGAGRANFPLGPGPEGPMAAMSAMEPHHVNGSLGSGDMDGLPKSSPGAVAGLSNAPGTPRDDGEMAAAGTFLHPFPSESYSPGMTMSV
UniProt Q9BZ95: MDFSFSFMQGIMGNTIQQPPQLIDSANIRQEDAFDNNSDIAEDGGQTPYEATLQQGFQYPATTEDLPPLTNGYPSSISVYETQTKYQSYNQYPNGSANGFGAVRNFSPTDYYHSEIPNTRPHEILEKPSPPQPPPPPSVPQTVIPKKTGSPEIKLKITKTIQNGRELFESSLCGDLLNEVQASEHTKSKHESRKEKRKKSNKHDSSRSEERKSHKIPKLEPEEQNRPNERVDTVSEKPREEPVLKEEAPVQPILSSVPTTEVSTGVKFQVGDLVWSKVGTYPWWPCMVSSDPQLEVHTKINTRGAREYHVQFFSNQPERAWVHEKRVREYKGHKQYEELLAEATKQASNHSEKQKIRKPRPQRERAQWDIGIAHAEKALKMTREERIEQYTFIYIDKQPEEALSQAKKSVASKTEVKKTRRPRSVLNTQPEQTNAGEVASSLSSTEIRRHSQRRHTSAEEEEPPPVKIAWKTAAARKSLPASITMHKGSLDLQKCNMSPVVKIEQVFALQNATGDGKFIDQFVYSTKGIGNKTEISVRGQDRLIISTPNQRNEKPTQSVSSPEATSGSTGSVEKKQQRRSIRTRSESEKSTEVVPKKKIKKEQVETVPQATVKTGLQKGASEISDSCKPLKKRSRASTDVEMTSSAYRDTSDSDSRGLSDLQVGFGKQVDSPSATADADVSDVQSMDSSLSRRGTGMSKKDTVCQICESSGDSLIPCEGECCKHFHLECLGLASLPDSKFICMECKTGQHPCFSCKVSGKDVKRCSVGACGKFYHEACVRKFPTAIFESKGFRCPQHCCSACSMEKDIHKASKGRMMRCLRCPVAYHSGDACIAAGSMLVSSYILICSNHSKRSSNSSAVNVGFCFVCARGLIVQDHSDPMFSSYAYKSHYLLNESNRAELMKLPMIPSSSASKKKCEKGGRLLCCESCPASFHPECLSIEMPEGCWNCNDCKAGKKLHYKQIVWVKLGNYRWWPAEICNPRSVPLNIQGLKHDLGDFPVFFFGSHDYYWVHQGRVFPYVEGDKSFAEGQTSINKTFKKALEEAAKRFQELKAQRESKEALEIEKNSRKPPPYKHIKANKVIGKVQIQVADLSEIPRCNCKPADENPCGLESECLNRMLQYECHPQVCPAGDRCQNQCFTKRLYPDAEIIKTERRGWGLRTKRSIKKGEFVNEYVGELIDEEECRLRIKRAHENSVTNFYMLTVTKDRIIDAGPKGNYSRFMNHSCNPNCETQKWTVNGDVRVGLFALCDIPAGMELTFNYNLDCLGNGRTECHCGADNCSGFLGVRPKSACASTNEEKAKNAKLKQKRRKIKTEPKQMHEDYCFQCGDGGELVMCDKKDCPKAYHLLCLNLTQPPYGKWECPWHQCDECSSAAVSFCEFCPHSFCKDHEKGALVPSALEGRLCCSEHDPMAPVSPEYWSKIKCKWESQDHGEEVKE
UniProt Q9BZL4: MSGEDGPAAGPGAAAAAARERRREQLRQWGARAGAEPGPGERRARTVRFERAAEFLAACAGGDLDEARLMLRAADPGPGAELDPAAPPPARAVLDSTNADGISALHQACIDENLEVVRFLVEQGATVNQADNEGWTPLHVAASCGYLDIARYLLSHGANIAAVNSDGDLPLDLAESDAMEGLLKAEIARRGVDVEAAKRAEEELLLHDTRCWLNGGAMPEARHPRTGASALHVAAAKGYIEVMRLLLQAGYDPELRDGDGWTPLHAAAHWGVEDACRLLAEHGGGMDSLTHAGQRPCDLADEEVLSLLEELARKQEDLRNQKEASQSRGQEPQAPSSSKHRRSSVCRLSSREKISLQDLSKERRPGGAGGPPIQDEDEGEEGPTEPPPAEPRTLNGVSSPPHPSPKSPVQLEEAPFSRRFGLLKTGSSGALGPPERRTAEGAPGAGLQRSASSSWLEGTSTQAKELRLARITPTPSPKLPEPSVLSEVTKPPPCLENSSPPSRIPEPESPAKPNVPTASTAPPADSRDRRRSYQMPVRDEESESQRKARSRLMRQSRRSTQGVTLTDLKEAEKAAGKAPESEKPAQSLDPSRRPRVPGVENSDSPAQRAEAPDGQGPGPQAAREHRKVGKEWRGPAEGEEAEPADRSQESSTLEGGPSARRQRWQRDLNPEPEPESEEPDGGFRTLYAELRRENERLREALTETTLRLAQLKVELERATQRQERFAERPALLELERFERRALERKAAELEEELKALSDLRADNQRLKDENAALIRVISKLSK
UniProt Q9BT30: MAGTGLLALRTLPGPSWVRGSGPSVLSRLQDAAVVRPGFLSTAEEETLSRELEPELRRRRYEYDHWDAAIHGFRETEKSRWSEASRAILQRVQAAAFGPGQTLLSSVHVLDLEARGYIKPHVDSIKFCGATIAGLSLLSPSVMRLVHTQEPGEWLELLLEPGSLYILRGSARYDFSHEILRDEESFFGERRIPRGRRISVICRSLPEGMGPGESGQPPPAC
UniProt Q9BW27: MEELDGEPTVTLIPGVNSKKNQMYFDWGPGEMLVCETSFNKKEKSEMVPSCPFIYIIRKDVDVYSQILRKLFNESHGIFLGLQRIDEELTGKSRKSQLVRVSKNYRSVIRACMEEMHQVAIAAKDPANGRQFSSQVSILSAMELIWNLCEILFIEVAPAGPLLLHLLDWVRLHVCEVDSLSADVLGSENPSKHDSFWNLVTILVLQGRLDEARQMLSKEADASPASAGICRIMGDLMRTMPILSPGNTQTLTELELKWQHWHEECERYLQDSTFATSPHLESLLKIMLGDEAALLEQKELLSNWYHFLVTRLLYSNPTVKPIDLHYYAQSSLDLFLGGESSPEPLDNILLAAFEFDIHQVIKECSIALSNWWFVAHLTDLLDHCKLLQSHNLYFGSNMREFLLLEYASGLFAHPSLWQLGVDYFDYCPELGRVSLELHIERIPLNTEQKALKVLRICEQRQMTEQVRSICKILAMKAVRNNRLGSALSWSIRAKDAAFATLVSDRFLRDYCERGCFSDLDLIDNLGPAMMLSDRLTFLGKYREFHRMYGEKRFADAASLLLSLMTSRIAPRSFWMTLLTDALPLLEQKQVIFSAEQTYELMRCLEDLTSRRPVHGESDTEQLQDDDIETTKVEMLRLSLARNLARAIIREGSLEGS
UniProt Q9BTV7: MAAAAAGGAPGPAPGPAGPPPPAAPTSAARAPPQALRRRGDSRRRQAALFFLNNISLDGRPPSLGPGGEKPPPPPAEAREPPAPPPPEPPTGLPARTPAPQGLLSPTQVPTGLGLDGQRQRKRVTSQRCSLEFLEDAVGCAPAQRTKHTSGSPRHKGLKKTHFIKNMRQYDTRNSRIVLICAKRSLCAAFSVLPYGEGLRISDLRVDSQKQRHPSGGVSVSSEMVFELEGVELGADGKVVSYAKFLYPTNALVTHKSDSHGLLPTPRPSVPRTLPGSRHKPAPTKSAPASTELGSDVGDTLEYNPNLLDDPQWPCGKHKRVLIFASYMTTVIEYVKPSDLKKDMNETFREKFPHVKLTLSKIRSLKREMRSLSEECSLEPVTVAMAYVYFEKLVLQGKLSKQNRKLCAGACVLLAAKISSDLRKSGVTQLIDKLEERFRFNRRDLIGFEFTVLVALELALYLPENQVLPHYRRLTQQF
UniProt Q9BQ15: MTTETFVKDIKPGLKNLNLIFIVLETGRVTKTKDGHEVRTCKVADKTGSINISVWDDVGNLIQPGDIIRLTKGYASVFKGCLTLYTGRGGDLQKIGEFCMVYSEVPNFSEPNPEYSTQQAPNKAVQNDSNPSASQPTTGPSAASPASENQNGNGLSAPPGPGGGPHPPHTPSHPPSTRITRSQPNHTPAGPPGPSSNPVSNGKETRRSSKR
UniProt Q9BVP2: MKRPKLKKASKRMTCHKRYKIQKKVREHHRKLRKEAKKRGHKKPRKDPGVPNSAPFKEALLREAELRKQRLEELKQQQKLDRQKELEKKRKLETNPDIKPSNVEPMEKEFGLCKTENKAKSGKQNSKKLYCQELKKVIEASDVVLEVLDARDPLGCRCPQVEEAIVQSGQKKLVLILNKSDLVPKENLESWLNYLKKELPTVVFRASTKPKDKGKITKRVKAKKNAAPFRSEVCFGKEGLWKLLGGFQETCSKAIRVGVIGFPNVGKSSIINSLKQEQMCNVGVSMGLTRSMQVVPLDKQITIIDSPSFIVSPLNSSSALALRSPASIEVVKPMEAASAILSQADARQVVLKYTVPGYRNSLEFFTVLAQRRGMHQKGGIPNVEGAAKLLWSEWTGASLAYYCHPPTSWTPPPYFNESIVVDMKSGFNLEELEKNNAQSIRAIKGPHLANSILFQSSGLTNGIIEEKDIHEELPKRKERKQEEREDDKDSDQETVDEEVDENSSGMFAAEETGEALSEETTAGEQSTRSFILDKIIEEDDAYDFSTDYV
UniProt Q99714: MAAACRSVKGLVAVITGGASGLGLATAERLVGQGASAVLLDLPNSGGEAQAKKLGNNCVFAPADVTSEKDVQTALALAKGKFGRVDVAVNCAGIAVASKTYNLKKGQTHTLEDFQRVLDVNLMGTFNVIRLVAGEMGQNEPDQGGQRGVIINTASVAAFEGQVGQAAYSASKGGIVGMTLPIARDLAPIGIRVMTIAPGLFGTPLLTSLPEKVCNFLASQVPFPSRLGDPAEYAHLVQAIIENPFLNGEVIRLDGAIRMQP
UniProt Q99470: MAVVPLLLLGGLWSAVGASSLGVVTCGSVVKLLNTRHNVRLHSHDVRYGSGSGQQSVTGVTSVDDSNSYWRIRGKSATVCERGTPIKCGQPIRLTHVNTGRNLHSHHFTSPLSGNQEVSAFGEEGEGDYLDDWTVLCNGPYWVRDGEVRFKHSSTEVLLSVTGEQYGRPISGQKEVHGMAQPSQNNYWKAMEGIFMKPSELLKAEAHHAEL

± gives the standard deviation of the averaged measurements. The entries are a selection whose mix differs from that of the whole data set.

Compound in the experiment: Nc1ncnc2c1ncn2[C@@H]1O[C@H](COP(=O)(O)OP(=O)(O)OP(=O)(O)O)[C@@H](O)[C@H]1O [adenosine triphosphate]
Nature of the experiment: NP40-soluble protein abundance relative to vehicle (solubility fold change) (ratio); higher = more soluble protein in presence of ATP. The settings on record: concentration: 10mM. Put shortly: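 In three independent experiments, Jurkat crude lysate made by Dounce homogenisation was treated for 10 min at room temperature and then 3 min at 37 °C with eight concentrations ranging from 0.1 to 10 mM. It was then solubilised with 0.8% NP40 plus benzonase for 60 min at 4 °C and ultracentrifuged. The supernatant was TMT-labelled for LC-MS/MS, and each value is the fold change against the detergent-processed vehicle for the same replicate, using vsn-normalised intensities.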
UniProt Q9BWG4 and related entries: the NP40-soluble protein abundance worked out at 0.984 ± 0.059. In the case of MAK16 (UniProt Q9BXY0), the NP40-soluble protein abundance was 1.18 ± 0.099. Then UniProt Q9BZ95 and related entries, with 1.38 ± 0.055; and UniProt Q9BZL4 and related entries, with 0.961 ± 0.016. Next, ALKBH7 (UniProt Q9BT30): 1.02 ± 0.079; NUP85 (UniProt Q9BW27): 1.1 ± 0.087; CABLES2 (UniProt Q9BTV7): 0.995 ± 0.25.

For the target NABP2 (UniProt Q9BQ15), the NP40-soluble protein abundance came to 1.12 ± 0.035.

UniProt Q9BVP2 and related entries: the NP40-soluble protein abundance was found to be 1.55 ± 0.14.

As for UniProt Q99714 and related entries, the NP40-soluble protein abundance was found to be 0.9415 ± 0.0078. Next, SDF2 (UniProt Q99470): 1.01 ± 0.068.
